Assay results published in PubChem BioAssay AID2685 (National Center for Advancing Translational Sciences (NCATS), 2010).
The other results are listed elsewhere or left out. These are further read-outs of the screen, such as a control signal, another cell line or another target. No call is given for them. Compounds called inactive in the main read-out are mostly missing here. The note in brackets gives the kind of curve behind each potency; many fits are weak.

Test: qHTS Assay for Lipid Storage Modulators in Drosophila S3 Cells;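 for cell number change: cells counted by Cell Tracker Red CMTPX staining in the red channel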
Details: BODIPY lipid droplet fluorescence, 18-24 h; for cell number change: measured here: cell count max response, cells fed with added oleic acid
Outline: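 Drosophila S3 cells got compounds at several concentrations plus oleic acid (400 uM solution). Laser-scanning cytometry with 488 nm excitation read lipid droplets at 500-530 nm and cells at 575-640 nm. Percent activity was relative to 20 uM Triacsin C.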

[1] = measured here: lipid fluorescence (Fed channel) AC50, cells fed with added oleic acid
[2] = measured here: cell number channel AC50, cells fed with added oleic acid

| Compound | cell number change | AC50 [1] | AC50 [2] |
| --- | --- | --- | --- |
| O=C(Cn1cnc2cc([N+](=O)[O-])ccc2c1=O)Nc1ccc(N2CCOCC2)cc1 | 2.76% | 0.291 µM [rising, full curve, poor fit] | – |
| CCOCCn1c(C(C)C)nc2ccccc21 | – | 6.51 µM [falling, single point] | – |
| Cc1ccc2c(c1)C(=O)C(=O)N2CC(=O)OC(C)C | 32.1% | 29.1 µM [rising, partial curve, poor fit] | 0.184 µM [rising, full curve, poor fit] |
| O=C(COC(=O)c1ccc(F)cc1)NCc1ccc(F)cc1 | -23.9% | 0.651 µM [falling, full curve, poor fit] | – |
| COc1cccc(CNC(=O)COC(=O)CCS(=O)(=O)c2ccc(C)cc2)c1 | -21.7% | 2.91 µM [rising, single point] | – |
| CCOP(=O)(OCC)C(NC(=O)c1cccs1)C(F)(F)F (centres undefined) | 72.3% | 29.1 µM [rising, single point] | 29.1 µM [rising, single point] |
| Cn1c(=O)cc(SCC(=O)NCCC2=CCCCC2)c2ccccc21 | 8.56% | 0.461 µM [rising, partial curve, poor fit] | 0.651 µM [rising, partial curve, poor fit] |
| CCOc1ccc(NC(=O)CSc2n[nH]c(=O)n2-c2ccccc2)cc1 | 7.83% | – | – |
| Cc1onc(-c2ccccc2)c1C(=O)N/N=C/c1ccc([N+](=O)[O-])s1 | 8.61% | 0.092 µM [rising, full curve, poor fit] | 0.082 µM [rising, full curve, poor fit] |
| C=CCNC(=O)c1ccc(Sc2ccccc2)c([N+](=O)[O-])c1 | -1.67% | 0.259 µM [rising, full curve] | – |
| CCCNC(=O)C(Cc1ccc(Cl)cc1)NC(=O)c1ccc(-c2ccccc2)cc1 (centres undefined) | -64.3% | 0.00461 µM [rising, full curve, poor fit] | 7.31 µM [falling, partial curve] |
| CCc1cccc2c(C(=S)N3CCOCC3)c[nH]c12 | -13.9% | 3.26 µM [falling, single point] | – |
| Cc1nnc(NC(=O)c2sc3nc(-c4cccs4)cc(C(F)(F)F)c3c2N)s1 | – | 10.3 µM [falling, partial curve] | – |
| COc1ccc2[nH]c3c(=O)n(/N=C/[C@H]4C(C)C=C(C)CC4C)c(=O)[nH]c3c2c1 (some centres undefined) | -69.4% | 11.6 µM [falling, partial curve, poor fit] | 20.6 µM [falling, single point] |
| CCOC(=O)c1cnn(-c2ccccc2)c1N | – | – | 2.06 µM [rising, partial curve] |
| CC(C)C[C@H](NC(=O)N1CCn2c1nc1ccccc12)C(=O)NCCc1ccccc1 | -2.02% | 0.259 µM [falling, full curve] | – |
| Cn1c(=O)c2c(SCC(=O)NCC3CCCO3)nc(-c3ccccc3Cl)nc2n(C)c1=O (centres undefined) | -33.4% | 6.31 µM [falling, full curve] | 6.31 µM [falling, full curve, poor fit] |
| CC(C)CN(CC(C)C)C(=O)CCCC(=O)N(CC(C)C)CC(C)C | -11.9% | 0.259 µM [falling, full curve, poor fit] | – |
| CCOC(=O)C1(CCCc2ccccc2)CCN(S(=O)(=O)N(C)C)CC1 | -22.3% | 29.1 µM [falling, single point] | – |
| CC(=O)c1ccc2c(c1)c1ccccc1n2CC(C)C | – | 29.1 µM [rising, single point] | – |

Compounds above that have fluorine, in the order listed:

| Compound | cell number change | AC50 [1] | AC50 [2] |
| --- | --- | --- | --- |
| O=C(COC(=O)c1ccc(F)cc1)NCc1ccc(F)cc1 | -23.9% | 0.651 µM [falling, full curve, poor fit] | – |
| CCOP(=O)(OCC)C(NC(=O)c1cccs1)C(F)(F)F (centres undefined) | 72.3% | 29.1 µM [rising, single point] | 29.1 µM [rising, single point] |
| Cc1nnc(NC(=O)c2sc3nc(-c4cccs4)cc(C(F)(F)F)c3c2N)s1 | – | 10.3 µM [falling, partial curve] | – |

Next results:

| Compound | cell number change | AC50 [1] | AC50 [2] |
| --- | --- | --- | --- |
| CC(C)CC(=O)Nc1ccc(C(=O)Cn2c(=O)oc3ccccc32)cc1 | 4.19% | – | 0.00411 µM [rising, full curve, poor fit] |
| CN(C)c1nc(Nc2ccc(F)cc2)nc(Oc2ccc(F)cc2)n1 | 23% | – | – |
| CCC(NC(=O)C1C2C=CC(C2)C1C(=O)O)c1ccc(C)cc1 (centres undefined) | 14.8% | 6.51 µM [rising, partial curve, poor fit] | – |
| CCc1ccccc1NC(=O)c1cc(C)no1 | -25.2% | – | – |
| COC(=O)c1nc2ccccn2c1F | -23.4% | 32.6 µM [falling, single point] | – |
| O=C1/C(=C\c2ccc(O)c(O)c2)SC(=S)N1Cc1ccccc1 | -208% | – | 14.6 µM [falling, partial curve] |
| COc1ccc(OC)c(NC(=O)COC(=O)Cn2nnc(-c3ccccc3)n2)c1 | 2.32% | 14.6 µM [falling, partial curve, poor fit] | – |
| Cc1ccccc1C(OCCN(C(C)C)C(C)C)c1ccccc1 (centres undefined) | -8.39% | – | – |
| CCn1cc(C(=O)N2CC=C(c3ccccc3)CC2)c(=O)c2ccc(C)nc21 | 3.2% | 0.116 µM [rising, partial curve, poor fit] | – |
| Cc1nc2cc(N=NC3=C(O)CCCC3=O)ccc2s1 | 5.63% | 4.11 µM [rising, full curve, poor fit] | – |
| COc1ccc(Oc2nc(SC)nc3ccccc23)cc1 | 85.5% | 18.4 µM [rising, single point] | 23.1 µM [rising, single point] |
| CC(C)N(CCO)Cc1nc(C(c2ccccc2)c2ccccc2)no1 | -21% | 29.1 µM [falling, single point] | – |
| O=C(Cc1ccccc1)N[C@@H](Cc1ccccc1)c1nc2ccccc2[nH]1 | -14.3% | – | – |
| CC(C)NC(=O)/C(=N\O)c1ccccc1 | -48% | – | 14.6 µM [falling, partial curve, poor fit] |
| CN(C)c1ccc(Cl)cc1N | 17.1% | 3.26 µM [rising, single point] | 1.16 µM [rising, single point] |
| COc1ccc(N2CCN(C(=O)c3ccc(COc4ccc5c(C)cc(=O)oc5c4)cc3)CC2)cc1 | -13.6% | 5.8 µM [rising, full curve] | – |
| CC(=O)Nc1ccc(S(=O)(=O)NCc2ccc(C(=O)NCCN3CCCCCC3)cc2)cc1 | -27.6% | 32.6 µM [falling, single point] | – |
| CN(C)c1ccc(C(CNC(=O)c2ccc(C#N)cc2)c2c[nH]c3ccccc23)cc1 (centres undefined) | 1.24% | – | – |
| Cn1nnnc1SCCNCC#Cc1ccccc1 | 63.4% | 5.17 µM [rising, partial curve] | 6.51 µM [rising, partial curve] |
| O=C(NN1C(=O)NC2(CCCCC2)C1=O)c1ccc(Cl)s1 | -40.8% | 0.00461 µM [falling, full curve, poor fit] | 0.00461 µM [falling, full curve, poor fit] |

| Compound | cell number change | AC50 [1] | AC50 [2] |
| --- | --- | --- | --- |
| CC(=O)c1cc(F)ccc1OCC(=O)N1CCN(c2ccc(F)cc2)CC1 | 25.8% | – | – |
| CC(=O)Oc1ccccc1/C=C/c1ccc2ccccc2[n+]1C | -34.6% | 1.64 µM [falling, full curve] | – |
| C=CCN1C(=O)C(C)(C)Nc2ccccc21 | 5.82% | 0.103 µM [falling, full curve, poor fit] | – |
| CC(C)Oc1ccc(C(=O)NC(=S)Nc2ccc(CN3CCOCC3)cc2)cc1 | 4.23% | 2.59 µM [rising, single point] | – |
| Cc1ccc(C)c(NC2=NCC(=O)N2c2ccc3c(c2)OCCO3)c1 | 6.99% | 1.64 µM [rising, partial curve, poor fit] | – |
| FC(F)(F)Oc1ccc(NC(=S)Nc2ccc(OC(F)(F)F)cc2)cc1 | -49% | – | 20.6 µM [falling, single point] |
| Cc1ccccc1NS(=O)(=O)c1ccc2c(c1)NC(=O)CO2 | -15.7% | 5.8 µM [falling, partial curve] | – |
| COC(=O)c1cc(-c2ccc(OC)cc2F)nc2nc(SC)[nH]c(=O)c12 | -8.57% | – | – |
| O=C(COc1ccc(Cl)cc1)NNC(=O)c1ccncc1 | -2.6% | 29.1 µM [rising, single point] | – |
| O=c1[nH]c(=O)n(C2CCCCCC2)c(O)c1C=NCc1ccc(F)cc1 | -39.1% | – | 25.9 µM [falling, single point] |
| O=C(CN1CCCCC1)N=Nc1c(O)[nH]c2ccccc12 | -13% | 0.058 µM [falling, full curve, poor fit] | – |
| COc1ccc(OC)c(-n2c(-c3cc(-c4ccccc4)n[nH]3)n[nH]c2=S)c1 | -50% | 1.46 µM [rising, full curve] | 0.164 µM [falling, full curve] |
| c1ccc(Nc2c3c(nc4ncnn24)CCC3)cc1 | 0.646% | 0.731 µM [falling, full curve, poor fit] | – |
| COc1ccc(CN2C(=O)CSCC2=O)cc1OC | 31.1% | 29.1 µM [rising, partial curve, poor fit] | 32.6 µM [rising, single point] |
| CS(=O)(=O)N(Cc1ccccc1)c1ccc(C(=O)Nc2ccc(C(N)=O)cc2)cc1 | -34.1% | 0.58 µM [falling, single point] | 1.3 µM [falling, full curve] |
| Cn1nc(C(F)(F)F)c(-c2ccc(F)cc2)c1NC(=O)Nc1ccc(F)cc1 | -35.2% | 14.6 µM [falling, single point] | 29.1 µM [falling, single point] |
| Cc1cccc(NC(=O)COC(=O)c2cccs2)c1C | 11.7% | – | – |
| CNc1cccc2c1C(=O)c1ccccc1C2=O | – | 13 µM [falling, partial curve] | – |
| CCOC(=O)N1CCC(N2C(=O)c3ccccc3C2Nc2ccc(C)cc2)CC1 (centres undefined) | 49.1% | – | 4.61 µM [rising, partial curve, poor fit] |
